Conditions: dog, in vivo

With `COc1ccccc1Oc1c(NS(=O)(=O)C=Cc2ccccc2)nc(-c2ncccn2)nc1OC` [COMPOUND Y, N-[6-methoxy-5-(2-methoxyphenoxy)-2-(2-pyrimidinyl)-4-pyrimidinyl]-2-phenylethensulphonamide] the “% of Kb at 24 hours following 0.5 mg/kg i.v. dose” value was 260%.

Source: patent US20020037903A1, “Use of pyrimidine endothelin antagonists in companion animals” (priority 2000, published 2002)
